Assay results taken from doi:10.1101/2021.08.27.457973.
These are yes or no findings as the source states them, for the method shown. In cells and extracts the contact can be indirect. Some entries that bind do so weakly or less than the wild type. Sequences can lack the tags named with a protein. Values belong to the binder of their own block, whether it stands above or below them.

Tests used:
Experiment in all cases: co-IP
[1] = molecular target: T1, TMEM192-GFP (human) (UniProt Q8IY95)
T1 sequence: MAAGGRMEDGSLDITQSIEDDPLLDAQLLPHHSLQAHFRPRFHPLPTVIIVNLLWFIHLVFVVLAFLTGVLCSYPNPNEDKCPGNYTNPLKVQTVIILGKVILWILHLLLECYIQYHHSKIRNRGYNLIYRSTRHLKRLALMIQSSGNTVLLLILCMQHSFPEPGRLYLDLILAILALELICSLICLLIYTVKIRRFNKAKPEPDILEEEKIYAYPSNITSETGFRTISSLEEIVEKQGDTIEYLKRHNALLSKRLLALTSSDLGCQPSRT

[2] = molecular target: T2, STK11IP-GFP (mouse) (UniProt Q3TAA7)
T2 sequence: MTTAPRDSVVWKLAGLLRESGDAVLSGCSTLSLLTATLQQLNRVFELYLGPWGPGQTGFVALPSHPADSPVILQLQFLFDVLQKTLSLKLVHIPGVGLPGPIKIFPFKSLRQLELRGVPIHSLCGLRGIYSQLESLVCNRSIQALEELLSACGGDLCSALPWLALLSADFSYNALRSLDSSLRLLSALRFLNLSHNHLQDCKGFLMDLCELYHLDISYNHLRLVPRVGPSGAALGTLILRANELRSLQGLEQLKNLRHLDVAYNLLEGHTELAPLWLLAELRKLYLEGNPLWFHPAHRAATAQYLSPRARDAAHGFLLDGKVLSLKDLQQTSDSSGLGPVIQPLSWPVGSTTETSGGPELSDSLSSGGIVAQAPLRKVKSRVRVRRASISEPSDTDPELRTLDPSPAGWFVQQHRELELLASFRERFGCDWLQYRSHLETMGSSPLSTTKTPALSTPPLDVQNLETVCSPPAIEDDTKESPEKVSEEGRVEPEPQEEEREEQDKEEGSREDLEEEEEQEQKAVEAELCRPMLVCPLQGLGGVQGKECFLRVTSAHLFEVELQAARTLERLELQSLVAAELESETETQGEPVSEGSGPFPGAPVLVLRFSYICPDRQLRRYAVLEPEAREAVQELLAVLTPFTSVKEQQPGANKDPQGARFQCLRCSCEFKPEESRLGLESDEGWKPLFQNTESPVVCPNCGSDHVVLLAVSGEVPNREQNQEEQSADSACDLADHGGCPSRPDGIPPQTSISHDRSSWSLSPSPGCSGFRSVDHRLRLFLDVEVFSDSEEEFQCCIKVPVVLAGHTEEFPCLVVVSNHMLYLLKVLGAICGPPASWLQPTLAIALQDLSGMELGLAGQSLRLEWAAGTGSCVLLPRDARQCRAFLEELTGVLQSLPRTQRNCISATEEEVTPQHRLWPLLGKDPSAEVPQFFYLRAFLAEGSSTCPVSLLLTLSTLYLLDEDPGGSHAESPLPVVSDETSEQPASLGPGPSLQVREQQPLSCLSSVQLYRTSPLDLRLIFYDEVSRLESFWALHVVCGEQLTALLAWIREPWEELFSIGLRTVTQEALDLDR

[3] = molecular target: T3, GFP-TMEM192^ΔN40 (human) (UniProt Q8IY95)
T3 sequence: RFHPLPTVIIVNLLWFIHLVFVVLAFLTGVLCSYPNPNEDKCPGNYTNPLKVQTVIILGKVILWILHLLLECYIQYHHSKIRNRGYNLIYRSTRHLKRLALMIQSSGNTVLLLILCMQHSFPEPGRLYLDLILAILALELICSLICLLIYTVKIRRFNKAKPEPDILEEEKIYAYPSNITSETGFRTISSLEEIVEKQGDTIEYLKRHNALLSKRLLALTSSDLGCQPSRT

[4] = molecular target: T4, TMEM192^ΔC34-GFP (human) (UniProt Q8IY95)
T4 sequence: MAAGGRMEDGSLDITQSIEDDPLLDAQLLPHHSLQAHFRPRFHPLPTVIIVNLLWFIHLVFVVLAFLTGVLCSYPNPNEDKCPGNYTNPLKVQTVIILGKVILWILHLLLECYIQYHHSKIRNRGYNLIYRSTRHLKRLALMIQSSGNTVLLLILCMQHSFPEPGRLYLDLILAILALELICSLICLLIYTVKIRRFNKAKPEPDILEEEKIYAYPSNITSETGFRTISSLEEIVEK

[5] = molecular target: T5, TMEM192^ΔC73-GFP (human) (UniProt Q8IY95)
T5 sequence: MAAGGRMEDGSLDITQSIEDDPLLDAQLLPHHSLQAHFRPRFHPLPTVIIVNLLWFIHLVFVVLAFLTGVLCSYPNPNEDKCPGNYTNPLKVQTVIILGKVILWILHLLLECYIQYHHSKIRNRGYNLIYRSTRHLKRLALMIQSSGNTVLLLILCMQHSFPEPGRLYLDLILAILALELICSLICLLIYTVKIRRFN

binding [1]: no binding
B1: HA-STK11IP^472-1072 (domain or fragment, UniProt Q3TAA7 472-1072)
chain: AIEDDTKESPEKVSEEGRVEPEPQEEEREEQDKEEGSREDLEEEEEQEQKAVEAELCRPMLVCPLQGLGGVQGKECFLRVTSAHLFEVELQAARTLERLELQSLVAAELESETETQGEPVSEGSGPFPGAPVLVLRFSYICPDRQLRRYAVLEPEAREAVQELLAVLTPFTSVKEQQPGANKDPQGARFQCLRCSCEFKPEESRLGLESDEGWKPLFQNTESPVVCPNCGSDHVVLLAVSGEVPNREQNQEEQSADSACDLADHGGCPSRPDGIPPQTSISHDRSSWSLSPSPGCSGFRSVDHRLRLFLDVEVFSDSEEEFQCCIKVPVVLAGHTEEFPCLVVVSNHMLYLLKVLGAICGPPASWLQPTLAIALQDLSGMELGLAGQSLRLEWAAGTGSCVLLPRDARQCRAFLEELTGVLQSLPRTQRNCISATEEEVTPQHRLWPLLGKDPSAEVPQFFYLRAFLAEGSSTCPVSLLLTLSTLYLLDEDPGGSHAESPLPVVSDETSEQPASLGPGPSLQVREQQPLSCLSSVQLYRTSPLDLRLIFYDEVSRLESFWALHVVCGEQLTALLAWIREPWEELFSIGLRTVTQEALDLDR

binding [2]: binds
B2: TMEM192-HA (protein, UniProt Q8IY95 1-271)
chain: T1 sequence

binding [1]: binds
B3: STK11IP^1-600-HA (domain or fragment, UniProt Q3TAA7 1-600)
chain: MTTAPRDSVVWKLAGLLRESGDAVLSGCSTLSLLTATLQQLNRVFELYLGPWGPGQTGFVALPSHPADSPVILQLQFLFDVLQKTLSLKLVHIPGVGLPGPIKIFPFKSLRQLELRGVPIHSLCGLRGIYSQLESLVCNRSIQALEELLSACGGDLCSALPWLALLSADFSYNALRSLDSSLRLLSALRFLNLSHNHLQDCKGFLMDLCELYHLDISYNHLRLVPRVGPSGAALGTLILRANELRSLQGLEQLKNLRHLDVAYNLLEGHTELAPLWLLAELRKLYLEGNPLWFHPAHRAATAQYLSPRARDAAHGFLLDGKVLSLKDLQQTSDSSGLGPVIQPLSWPVGSTTETSGGPELSDSLSSGGIVAQAPLRKVKSRVRVRRASISEPSDTDPELRTLDPSPAGWFVQQHRELELLASFRERFGCDWLQYRSHLETMGSSPLSTTKTPALSTPPLDVQNLETVCSPPAIEDDTKESPEKVSEEGRVEPEPQEEEREEQDKEEGSREDLEEEEEQEQKAVEAELCRPMLVCPLQGLGGVQGKECFLRVTSAHLFEVELQAARTLERLELQSLVAAELESETETQGEPVSEGSGPFPG

binding [3]: binds weakly
binding [1]: binds
binding [4]: no binding
binding [5]: no binding
B4: STK11IP-HA (protein, UniProt Q3TAA7 1-1072)
chain: T2 sequence
